Measured values reported in the supplement of paper PMC10849652.
The list shows a part of the results.

Chains of the proteins cited; added tags and fusions are not shown. Lines headed by an entry give the natural chain unless they say otherwise; changes in a name come on top.
UniProt O75438, whole entry, looked up: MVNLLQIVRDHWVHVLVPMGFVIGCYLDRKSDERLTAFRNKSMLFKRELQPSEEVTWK
UniProt Q6PIU2: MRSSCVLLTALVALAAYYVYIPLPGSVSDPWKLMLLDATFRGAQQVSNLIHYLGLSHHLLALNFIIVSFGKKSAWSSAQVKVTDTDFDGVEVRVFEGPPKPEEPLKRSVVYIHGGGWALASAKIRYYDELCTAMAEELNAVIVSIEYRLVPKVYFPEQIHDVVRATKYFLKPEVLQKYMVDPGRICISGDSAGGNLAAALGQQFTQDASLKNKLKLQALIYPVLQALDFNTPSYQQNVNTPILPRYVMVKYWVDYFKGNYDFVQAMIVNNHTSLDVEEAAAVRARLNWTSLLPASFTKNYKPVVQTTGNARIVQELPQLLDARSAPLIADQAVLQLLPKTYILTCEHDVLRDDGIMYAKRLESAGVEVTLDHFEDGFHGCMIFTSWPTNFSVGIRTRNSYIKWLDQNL
UniProt O95298, whole entry, looked up: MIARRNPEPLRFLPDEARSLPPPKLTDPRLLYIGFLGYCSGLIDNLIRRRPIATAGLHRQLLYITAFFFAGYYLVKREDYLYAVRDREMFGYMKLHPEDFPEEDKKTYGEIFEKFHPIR
UniProt Q96HR8: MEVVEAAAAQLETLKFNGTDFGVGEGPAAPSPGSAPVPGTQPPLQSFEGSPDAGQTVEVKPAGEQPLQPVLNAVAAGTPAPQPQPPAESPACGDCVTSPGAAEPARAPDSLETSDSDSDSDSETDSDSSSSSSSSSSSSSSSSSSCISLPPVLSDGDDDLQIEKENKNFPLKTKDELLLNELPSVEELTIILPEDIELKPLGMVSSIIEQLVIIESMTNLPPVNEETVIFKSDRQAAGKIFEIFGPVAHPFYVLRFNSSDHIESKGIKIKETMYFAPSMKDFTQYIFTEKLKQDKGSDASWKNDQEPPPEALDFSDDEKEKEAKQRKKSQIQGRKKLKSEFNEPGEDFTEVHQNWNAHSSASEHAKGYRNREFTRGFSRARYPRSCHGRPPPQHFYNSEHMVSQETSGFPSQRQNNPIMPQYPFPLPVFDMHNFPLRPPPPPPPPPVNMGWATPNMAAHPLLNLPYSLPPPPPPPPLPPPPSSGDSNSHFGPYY
UniProt O43181, whole entry, looked up: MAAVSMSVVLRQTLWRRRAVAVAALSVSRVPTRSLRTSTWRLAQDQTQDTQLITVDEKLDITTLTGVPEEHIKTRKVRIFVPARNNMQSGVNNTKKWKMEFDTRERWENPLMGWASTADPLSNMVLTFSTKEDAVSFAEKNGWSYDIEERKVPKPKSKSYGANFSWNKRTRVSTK
UniProt Q9UJ70, whole entry, looked up: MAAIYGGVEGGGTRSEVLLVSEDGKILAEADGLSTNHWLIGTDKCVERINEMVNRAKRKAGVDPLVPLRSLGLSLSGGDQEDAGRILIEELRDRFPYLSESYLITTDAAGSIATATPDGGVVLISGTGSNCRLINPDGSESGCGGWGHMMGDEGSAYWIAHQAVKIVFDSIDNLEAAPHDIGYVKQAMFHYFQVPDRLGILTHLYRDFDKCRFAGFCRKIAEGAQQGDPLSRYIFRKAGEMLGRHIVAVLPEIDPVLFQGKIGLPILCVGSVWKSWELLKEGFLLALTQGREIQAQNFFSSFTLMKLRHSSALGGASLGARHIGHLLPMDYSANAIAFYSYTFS
UniProt O00483, whole entry, looked up: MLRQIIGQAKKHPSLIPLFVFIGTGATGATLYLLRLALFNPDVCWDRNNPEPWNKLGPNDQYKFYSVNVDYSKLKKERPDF
UniProt Q96RE7: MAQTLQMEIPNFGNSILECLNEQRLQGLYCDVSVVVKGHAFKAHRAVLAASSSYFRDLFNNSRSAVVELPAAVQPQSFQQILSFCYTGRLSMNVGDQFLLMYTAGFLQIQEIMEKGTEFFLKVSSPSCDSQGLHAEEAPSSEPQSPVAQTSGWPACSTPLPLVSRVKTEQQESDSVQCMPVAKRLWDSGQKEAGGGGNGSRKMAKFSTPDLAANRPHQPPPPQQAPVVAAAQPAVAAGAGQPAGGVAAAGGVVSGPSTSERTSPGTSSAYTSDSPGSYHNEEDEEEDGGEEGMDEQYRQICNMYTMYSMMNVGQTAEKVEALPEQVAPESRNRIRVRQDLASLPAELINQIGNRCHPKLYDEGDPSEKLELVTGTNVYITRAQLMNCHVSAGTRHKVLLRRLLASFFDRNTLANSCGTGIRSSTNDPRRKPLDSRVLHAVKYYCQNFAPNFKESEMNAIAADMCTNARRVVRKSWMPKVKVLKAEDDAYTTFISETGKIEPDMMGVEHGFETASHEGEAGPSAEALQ
UniProt P12036: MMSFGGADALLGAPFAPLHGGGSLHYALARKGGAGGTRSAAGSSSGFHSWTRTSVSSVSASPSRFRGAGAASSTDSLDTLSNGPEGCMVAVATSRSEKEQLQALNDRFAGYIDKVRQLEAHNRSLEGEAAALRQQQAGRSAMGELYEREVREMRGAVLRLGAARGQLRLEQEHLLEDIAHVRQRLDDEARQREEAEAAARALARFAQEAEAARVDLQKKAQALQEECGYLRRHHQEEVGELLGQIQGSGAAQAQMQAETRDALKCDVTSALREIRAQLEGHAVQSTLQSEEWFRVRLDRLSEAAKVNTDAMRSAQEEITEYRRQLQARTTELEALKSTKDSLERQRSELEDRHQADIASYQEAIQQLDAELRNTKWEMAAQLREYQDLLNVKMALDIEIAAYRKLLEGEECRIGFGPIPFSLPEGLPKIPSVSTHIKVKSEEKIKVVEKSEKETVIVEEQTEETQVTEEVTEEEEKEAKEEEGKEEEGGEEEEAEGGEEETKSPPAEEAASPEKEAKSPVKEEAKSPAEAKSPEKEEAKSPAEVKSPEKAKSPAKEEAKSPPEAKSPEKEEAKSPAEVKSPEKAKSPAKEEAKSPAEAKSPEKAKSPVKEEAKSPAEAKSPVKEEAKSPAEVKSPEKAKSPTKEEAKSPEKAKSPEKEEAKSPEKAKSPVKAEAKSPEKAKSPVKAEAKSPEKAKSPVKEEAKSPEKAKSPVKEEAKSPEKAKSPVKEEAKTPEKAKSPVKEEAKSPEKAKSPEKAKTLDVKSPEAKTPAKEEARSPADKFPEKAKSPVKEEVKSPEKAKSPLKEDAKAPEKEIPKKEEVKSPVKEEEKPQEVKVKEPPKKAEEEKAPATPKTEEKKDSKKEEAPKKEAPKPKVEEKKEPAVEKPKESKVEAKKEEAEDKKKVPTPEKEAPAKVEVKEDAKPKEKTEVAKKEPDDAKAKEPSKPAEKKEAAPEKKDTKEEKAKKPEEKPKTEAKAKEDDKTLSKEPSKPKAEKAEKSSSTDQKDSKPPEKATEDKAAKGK
UniProt Q92542, whole entry, looked up: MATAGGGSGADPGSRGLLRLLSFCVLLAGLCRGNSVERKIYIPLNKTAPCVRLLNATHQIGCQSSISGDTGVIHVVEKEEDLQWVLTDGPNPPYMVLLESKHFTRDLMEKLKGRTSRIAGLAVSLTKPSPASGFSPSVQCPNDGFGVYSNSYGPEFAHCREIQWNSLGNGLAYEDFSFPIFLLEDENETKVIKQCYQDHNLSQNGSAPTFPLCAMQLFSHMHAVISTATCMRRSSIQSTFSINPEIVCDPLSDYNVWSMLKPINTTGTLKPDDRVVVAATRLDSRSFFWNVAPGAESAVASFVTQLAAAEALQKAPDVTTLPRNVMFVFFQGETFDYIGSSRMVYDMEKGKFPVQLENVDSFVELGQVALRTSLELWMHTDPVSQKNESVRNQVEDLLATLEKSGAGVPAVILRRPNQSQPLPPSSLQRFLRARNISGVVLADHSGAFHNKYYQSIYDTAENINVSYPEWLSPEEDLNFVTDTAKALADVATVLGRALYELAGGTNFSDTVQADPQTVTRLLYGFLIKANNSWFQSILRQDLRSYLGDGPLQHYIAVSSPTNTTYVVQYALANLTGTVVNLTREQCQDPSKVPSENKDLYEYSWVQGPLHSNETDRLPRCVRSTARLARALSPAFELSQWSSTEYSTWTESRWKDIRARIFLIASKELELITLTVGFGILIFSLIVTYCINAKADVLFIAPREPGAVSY
UniProt O95167, whole entry, looked up: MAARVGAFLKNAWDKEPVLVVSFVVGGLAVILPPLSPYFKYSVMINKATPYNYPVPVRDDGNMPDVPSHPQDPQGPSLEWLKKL
UniProt Q8NI08: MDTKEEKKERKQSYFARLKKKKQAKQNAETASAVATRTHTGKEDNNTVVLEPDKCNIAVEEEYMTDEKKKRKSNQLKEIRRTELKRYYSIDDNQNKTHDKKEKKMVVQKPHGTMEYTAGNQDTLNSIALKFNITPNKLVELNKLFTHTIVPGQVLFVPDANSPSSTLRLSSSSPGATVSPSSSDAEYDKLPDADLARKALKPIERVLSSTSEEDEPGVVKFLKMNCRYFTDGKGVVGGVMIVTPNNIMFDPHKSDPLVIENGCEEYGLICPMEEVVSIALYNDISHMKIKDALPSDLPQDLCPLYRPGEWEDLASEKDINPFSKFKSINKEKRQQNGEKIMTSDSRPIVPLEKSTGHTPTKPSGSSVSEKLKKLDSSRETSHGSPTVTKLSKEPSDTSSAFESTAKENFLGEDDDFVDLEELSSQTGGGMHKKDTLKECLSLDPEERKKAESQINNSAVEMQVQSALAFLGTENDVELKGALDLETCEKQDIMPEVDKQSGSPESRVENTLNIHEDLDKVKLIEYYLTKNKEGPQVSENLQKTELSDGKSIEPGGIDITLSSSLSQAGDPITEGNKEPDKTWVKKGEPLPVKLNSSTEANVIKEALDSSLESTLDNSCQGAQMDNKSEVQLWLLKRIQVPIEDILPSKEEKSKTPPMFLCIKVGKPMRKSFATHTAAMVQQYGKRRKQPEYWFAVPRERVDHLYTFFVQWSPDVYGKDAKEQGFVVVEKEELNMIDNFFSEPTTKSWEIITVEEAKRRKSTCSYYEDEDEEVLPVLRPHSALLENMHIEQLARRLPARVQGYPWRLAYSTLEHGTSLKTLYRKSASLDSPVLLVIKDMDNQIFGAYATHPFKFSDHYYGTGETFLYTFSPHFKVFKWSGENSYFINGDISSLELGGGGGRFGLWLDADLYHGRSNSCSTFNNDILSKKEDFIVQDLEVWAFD
UniProt P56181: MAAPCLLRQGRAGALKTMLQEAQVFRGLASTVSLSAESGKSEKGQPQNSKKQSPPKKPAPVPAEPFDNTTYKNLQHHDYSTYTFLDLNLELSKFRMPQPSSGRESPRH
UniProt P56556, whole entry, looked up: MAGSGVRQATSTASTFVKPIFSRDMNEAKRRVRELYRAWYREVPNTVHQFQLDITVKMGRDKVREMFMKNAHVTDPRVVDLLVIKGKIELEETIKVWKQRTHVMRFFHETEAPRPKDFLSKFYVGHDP
UniProt Q15843, whole entry, looked up: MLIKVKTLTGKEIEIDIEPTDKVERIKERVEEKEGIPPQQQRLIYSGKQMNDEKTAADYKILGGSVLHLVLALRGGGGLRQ
UniProt Q7L592: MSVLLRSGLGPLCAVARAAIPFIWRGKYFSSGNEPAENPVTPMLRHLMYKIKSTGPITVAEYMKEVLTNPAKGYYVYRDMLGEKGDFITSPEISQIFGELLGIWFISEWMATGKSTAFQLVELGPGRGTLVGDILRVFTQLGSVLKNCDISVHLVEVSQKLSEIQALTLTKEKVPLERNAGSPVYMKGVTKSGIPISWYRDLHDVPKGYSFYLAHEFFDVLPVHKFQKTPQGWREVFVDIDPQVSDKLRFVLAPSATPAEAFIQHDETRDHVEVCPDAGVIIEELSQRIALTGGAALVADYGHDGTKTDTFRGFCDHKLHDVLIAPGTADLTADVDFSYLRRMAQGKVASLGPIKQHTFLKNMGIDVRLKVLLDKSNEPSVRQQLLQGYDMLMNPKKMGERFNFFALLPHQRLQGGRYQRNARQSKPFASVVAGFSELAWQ
UniProt O95544: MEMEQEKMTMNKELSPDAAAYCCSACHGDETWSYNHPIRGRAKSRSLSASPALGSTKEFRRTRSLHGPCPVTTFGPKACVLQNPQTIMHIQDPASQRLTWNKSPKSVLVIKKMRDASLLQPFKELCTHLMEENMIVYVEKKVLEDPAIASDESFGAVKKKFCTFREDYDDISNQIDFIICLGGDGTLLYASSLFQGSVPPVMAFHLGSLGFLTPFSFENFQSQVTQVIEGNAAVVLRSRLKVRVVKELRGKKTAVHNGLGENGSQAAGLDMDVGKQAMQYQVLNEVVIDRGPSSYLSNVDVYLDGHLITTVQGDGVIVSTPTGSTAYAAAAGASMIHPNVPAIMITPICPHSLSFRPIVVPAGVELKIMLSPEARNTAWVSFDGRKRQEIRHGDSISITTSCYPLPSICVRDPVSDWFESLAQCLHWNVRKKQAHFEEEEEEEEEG
UniProt Q8TBE9: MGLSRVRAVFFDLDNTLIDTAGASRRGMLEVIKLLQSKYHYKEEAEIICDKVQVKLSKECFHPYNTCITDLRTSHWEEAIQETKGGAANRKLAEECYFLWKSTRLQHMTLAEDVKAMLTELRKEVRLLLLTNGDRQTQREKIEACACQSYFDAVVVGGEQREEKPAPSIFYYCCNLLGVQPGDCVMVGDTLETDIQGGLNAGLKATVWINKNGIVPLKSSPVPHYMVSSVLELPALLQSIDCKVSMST
UniProt Q96NT1: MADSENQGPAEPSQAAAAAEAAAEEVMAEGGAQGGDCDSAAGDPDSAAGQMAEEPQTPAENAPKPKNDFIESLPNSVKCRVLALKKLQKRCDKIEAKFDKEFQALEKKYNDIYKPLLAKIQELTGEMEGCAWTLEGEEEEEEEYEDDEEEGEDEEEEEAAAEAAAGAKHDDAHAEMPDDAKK

Compound: NC(=O)c1cnc(N[C@@H]2CCCC[C@@H]2N)nc1Nc1cccc(-n2nccn2)c1
Assay: log2 fold change, soluble protein after heating vs DMSO (PISA); higher = thermal stabilisation; K562 cells, 10 uM, 30 min; active = over 0.2 and 3.5 SD of the protein, either way, in both replicates (recomputed)
Method in brief: (§1)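 Values are thermal stability changes relative to control samples and are taken from duplicates. They are stated as log2 fold changes. Before quantification by TMTpro 16plex LC-MS/MS with equalised channel sums, K562 cells at 2×10^6 cells/mL were treated with 10 μM compound for 30 min, heated in aliquots for 3 min across 48°C-58°C, pooled, extracted in PBS with 0.5% NP-40 at 4°C, and centrifuged at 21,000xg for 90 min to give the soluble supernatant.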

log2 fold change, inactive:
NDUFB1 (UniProt O75438) -0.114
NAA15, A0A0B4J1W3 0.009
NA, A0A096LPI6 0.04
NCEH1 isoform 2 (UniProt Q6PIU2) -0.048
NDUFAF4 (UniProt Q9P032) -0.055
NDUFC2 (UniProt O95298) -0.128
NAF1 (UniProt Q96HR8) 0.102
NCOA6 (UniProt Q14686) -0.017
NDUFS4 (UniProt O43181) 0.026
NAGK isoform 2 (UniProt Q9UJ70) -0.017
NDUFA4 (UniProt O00483) 0.009
NACC1 (UniProt Q96RE7) -0.082
NEFH (UniProt P12036) -0.105
NCSTN (UniProt Q92542) -0.051
NDUFA3 (UniProt O95167) -0.009
NCOA7 (UniProt Q8NI08) -0.036
NDUFA10 (UniProt O95299) 0.015
NACA (UniProt E9PAV3) 0.04
NDUFV3 isoform 2 (UniProt P56181) 0.066

Compound: NC1(c2ccc(-c3nc4ccn5c(=O)[nH]nc5c4cc3-c3ccccc3)cc2)CCC1
Assay: as above
Method in brief: as §1

log2 fold change, inactive:
NDUFA6 (UniProt P56556) -0.113
NARS2 (UniProt Q96I59) -0.142
NEDD8 (UniProt Q15843) -0.007
NDUFA2 (UniProt O43678) -0.009
NDUFAF7 (UniProt Q7L592) -0.109
NDUFB5 (UniProt O43674) -0.05
NADK (UniProt O95544) 0.004
NANP (UniProt Q8TBE9) -0.108
NDUFS3 (UniProt O75489) -0.032
NAP1L4 isoform 2 (UniProt Q99733) -0.001
NAP1L5 (UniProt Q96NT1) -0.058
NDRG3 (UniProt Q9UGV2) -0.049
NADSYN1 (UniProt Q6IA69) -0.033
NDUFA7 (UniProt O95182) -0.108
NDUFB1 (UniProt O75438) -0.007
NAA15, A0A0B4J1W3 -0.086
NA, A0A096LPI6 -0.012
NCEH1 isoform 2 (UniProt Q6PIU2) -0.059
NDUFAF4 (UniProt Q9P032) -0.088
NDUFC2 (UniProt O95298) -0.009
NAF1 (UniProt Q96HR8) 0.043
NCOA6 (UniProt Q14686) 0.126
NDUFS4 (UniProt O43181) 0.005
NAGK isoform 2 (UniProt Q9UJ70) -0.035
NDUFA4 (UniProt O00483) -0.075
NACC1 (UniProt Q96RE7) -0.173
NEFH (UniProt P12036) -0.216
NCSTN (UniProt Q92542) -0.001
NDUFA3 (UniProt O95167) -0.113
NCOA7 (UniProt Q8NI08) -0.068
NDUFA10 (UniProt O95299) -0.105
NACA (UniProt E9PAV3) 0.044
NDUFV3 isoform 2 (UniProt P56181) 0.007
